Measured values from ChEMBL document CHEMBL1121377, “Synthesis and biological activities of chloroethylurea, methylurea, and nitrosourea analogues of N-deacetylmethylthiocolchicine” (1980).

Columns and labels:
Human alphaherpesvirus 1 = test: microbe, parasite or virus in culture
L1210 = test: In vitro inhibitory activity against murine leukemia L1210 cells; assay type: functional; details: Mus musculus, read-out: ED50 (the source's name)

COc1cc2c(c(OC)c1OC)-c1ccc(SC)c(=O)cc1C(N)CC2 (configuration not stated)
inhibition at 30 µM (Human alphaherpesvirus 1): 81%
EC50 (L1210): 19 nM
